Laboratory results from publication PMC11984406.
Results are given in words; binding and its absence hold for the method and conditions named. For part of these data: In cells and extracts the contact can be indirect. Some binding calls cover weakened binding; strength is not graded here. Sequences can lack the tags named with a protein.

Amino acid sequences for entries named in this document (tags omitted).
UniProt P35222: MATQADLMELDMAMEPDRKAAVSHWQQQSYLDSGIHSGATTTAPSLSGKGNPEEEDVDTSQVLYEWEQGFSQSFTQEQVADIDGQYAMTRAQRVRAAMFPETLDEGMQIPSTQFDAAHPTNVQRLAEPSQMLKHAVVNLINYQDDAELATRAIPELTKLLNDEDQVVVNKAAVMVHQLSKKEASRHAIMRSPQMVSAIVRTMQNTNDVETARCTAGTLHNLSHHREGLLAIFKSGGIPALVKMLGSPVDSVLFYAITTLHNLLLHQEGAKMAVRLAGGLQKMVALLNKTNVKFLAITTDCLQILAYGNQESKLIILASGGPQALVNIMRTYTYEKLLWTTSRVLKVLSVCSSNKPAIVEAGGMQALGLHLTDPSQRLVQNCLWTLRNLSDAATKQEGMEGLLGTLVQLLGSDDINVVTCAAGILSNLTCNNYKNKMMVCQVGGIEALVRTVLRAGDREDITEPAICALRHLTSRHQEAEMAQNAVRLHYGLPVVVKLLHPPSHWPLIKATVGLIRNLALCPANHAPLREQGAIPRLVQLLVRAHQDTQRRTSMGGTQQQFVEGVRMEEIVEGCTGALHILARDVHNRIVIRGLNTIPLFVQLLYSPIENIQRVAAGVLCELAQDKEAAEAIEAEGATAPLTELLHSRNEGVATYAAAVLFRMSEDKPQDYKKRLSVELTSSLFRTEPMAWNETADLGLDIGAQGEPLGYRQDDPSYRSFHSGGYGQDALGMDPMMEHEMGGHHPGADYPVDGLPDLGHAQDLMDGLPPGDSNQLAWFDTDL

Legend:
GFP-RNF138 = molecular target: T1, GFP-RNF138 (UniProt Q8WVD3); assay: co-IP; lysates of HEK-293T cells transfected with GFP-RNF138 or GFP; anti-GFP nanobody agarose beads overnight at 4°C; IP lysis buffer 30 mM Tris pH 7.5, 150 mM NaCl, 10% glycerol, 1% Triton X-100; blots for β-catenin, APC, p62 and GFP
T1 sequence: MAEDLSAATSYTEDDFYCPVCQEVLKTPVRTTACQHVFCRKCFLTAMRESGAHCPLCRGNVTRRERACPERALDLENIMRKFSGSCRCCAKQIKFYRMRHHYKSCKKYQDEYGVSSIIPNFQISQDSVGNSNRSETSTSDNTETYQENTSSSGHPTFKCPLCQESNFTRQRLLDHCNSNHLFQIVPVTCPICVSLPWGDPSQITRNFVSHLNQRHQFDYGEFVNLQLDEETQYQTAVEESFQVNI

GST-RNF138 = molecular target: T2, GST-RNF138 (UniProt Q8WVD3); assay: pull-down; purified recombinant GST-RNF138, His-APC (N-terminal) and His-β-catenin incubated together overnight at 4°C in 25 mM Tris, 300 mM NaCl, 2 mM DTT, 2% glycerol, 0.1% Tween-20, pH 8.0; GST beads; immunoblot; both purified
T2 sequence: T1 sequence

Substance	binding (GFP-RNF138)	binding (GST-RNF138)
p62 (from UniProt Q13501 1-440)	binds	–
β-catenin (from UniProt P35222 1-781)	binds	–
His-β-catenin (from UniProt P35222 1-781)	–	binds
